Earlier results as cited in patent US20120135078A1, “ANGINA TREATMENT” (University of Dindee, priority 2009, published 2012).
At least one compound was matched to its structure with a doubt left.

System: angina patients
Details: references 1-7; cited from earlier work

For CCOC(=O)C1=C(COCCN)NC(C)=C(C(=O)OC)C1c1ccccc1Cl (centres unmarked) [amlodipine], the “increase in time to ST depression, comparable published figures” value is given as 36 s and the “increase in time to ST depression, comparable published figures (percent)” value is given as 13%.
